Values quoted from earlier work, collected in patent US20150361400A1, “COMPOSITIONS AND METHODS FOR MAINTAINING AND IMPROVING PANCREATIC ISLET CELL FUNCTION AND STABILITY” (WAKE FOREST UNIVERSITY HEALTH SCIENCES, priority 2013, published 2015).
For at least one compound, name, drawing or mass did not settle the structure.

Columns and labels:
[1] = test system: Zucker diabetic fatty rat (ZDF) model; settings: cited from earlier work
isolated human islets = settings: cited from earlier work

Question: With `C[C@]12CC[C@@H]3c4ccc(O)cc4CC[C@H]3[C@@H]1CC[C@@H]2O` [estradiol] as the molecule, how does the islet lipid synthesis [1] read?
Answer: reduced

Question: And the “islet death induced by proinflammatory cytokine treatment” value (isolated human islets)?
Answer: suppressed
